The values that follow are results of earlier work, collected in patent publication US20080260845A1, “MULTIPLE ACTIVE DRUG RESIN CONJUGATE” (priority 2003, published 2008).

Each structure is given as a SMILES string. Like-named read-outs stand apart in the source and are kept apart here.

The conditions of this data set: compared with pseudoephedrine alone, cited from earlier work.

On to `CN[C@@H](C)[C@@H](O)c1ccccc1` [pseudoephedrine], for which the availability of pseudoephedrine result is on record as “substantial increase in availability” (after the first hour and a half); “substantial decrease in the availability” (during the first hour and a half after dosage).
